Patent US7452977
These are yes or no findings as the source states them, for the method shown. In cells and extracts the contact can be indirect. Some binding calls cover weakened binding; strength is not graded here.

Biological target: recombinant RelA homodimer, Q04206
Test: co-immunoprecipitation with anti-RelA antisera
Conditions: remark: other sources report otherwise

B1: IκBα, P25963 1-317 (protein)
chain: MFQAAERPQEWAMEGPRDGLKKERLLDDRHDSGLDSMKDEEYEQMVKELQEIRLEPQEVPRGSEPWKQQLTEDGDSFLHLAIIHEEKALTMEVIRQVKGDLAFLNFQNNLQQTPLHLAVITNQPEIAEALLGAGCDPELRDFRGNTPLHLACEQGCLASVGVLTQSCTTPHLHSILKATNYNGHTCLHLASIHGYLGIVELLVSLGADVNAQEPCNGRTALHLAVDLQNPDLVSLLLKCGADVNRVTYQGYSPYQLTWGRPSTRIQQQLGQLTLENLQMLPESEDEESYDTESEFTEFTEDELPYDDCVFGGQRLTL
binding: binds
